From PubChem BioAssay AID1347076 (National Center for Advancing Translational Sciences (NCATS), 2019)
Screen size: about 400,000 compounds; about 13,000 (3.2%) were called active. This list was built around the results that the source calls inconclusive (neither active nor inactive); the mix of calls is not that of the screen. Calls follow the shape of the dose curve; as a rule, active = well fitted cell-killing curve with a large enough effect; inconclusive = small, poorly fitted or top-dose-only effect, or effect the other way; inactive = flat fitted curve, though single readings scatter. Where the call is inconclusive, the potency comes from a doubtful curve fit.

Assay: qHTS assay for MDR1-selective chemotherapeutics: Primary screen using the drug-selected MDR subline cells KB-V1; also: nearly all actives have a fitted effect of over 60% in size
Conditions: KB-V1 MDR cells viability, CellTiter-Glo, 72 h; activity change, negative = cytotoxicity: at 46.1 µM (top of the series)
Method in brief: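 Drug-selected KB-V1 cells, grown in DMEM lacking phenol red with 10% FBS, receive compound titrations; after three days at 37 degrees C, surviving cell ATP is quantified by CellTiter-Glo luminescence and responses normalized and curve-fitted.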
% is scaled to controls: 0 for no effect and ±100 for the full control effect; potency is read from the fitted curve at half-maximal effect.

| Structure (SMILES) | Potency | activity change, negative = cytotoxicity |
| --- | --- | --- |
| Cc1ccc(CSCC(=O)N(C)CC(=O)Nc2ccccc2C(F)(F)F)cc1 | inconclusive: 29.1 µM [cytotoxic, single point] |  |
| COc1ccc(Cl)cc1NC(=O)CN(C)C(=O)C12CC3CC(CC(Cl)(C3)C1)C2 | inconclusive: 6.51 µM [cytotoxic, partial curve] |  |
| COc1ccccc1NS(=O)(=O)c1ccc(C(=O)N2CCCCCC2)cc1 | inconclusive: 10.3 µM [cytotoxic, partial curve, poor fit] |  |
| COC(=O)c1ccc(-c2cc3onc(-c4ccccc4)c3c(=O)n2C)cc1 | inconclusive: 2.59 µM [rising, full curve] |  |
| CCc1c(-c2cccc(OC)c2)ncn1Cc1cccc(-c2ccccc2)c1 | inconclusive: 23.1 µM [cytotoxic, single point] |  |
| CCOC(=O)C1CCN(C(=O)c2cc3ccc4ccc(C)[nH]c4c3n2)CC1 | inactive |  |
| C#CCOCCOCCOCCNc1nc(N2CCOCC2)nc(N2CCN(C(=O)[C@H](Cc3cc4ccccc4[nH]3)n3cc([C@@H](N)CC(C)C)nn3)CC2)n1 |  | inconclusive: 6.25% |
| Cc1cccc(S(=O)(=O)N(C)C[C@@H]2OCc3cnnn3CCCC(=O)N([C@H](C)CO)C[C@@H]2C)c1 | inactive |  |
| COc1ccc(NC(=O)CN(C)C(=O)c2ccc(NS(=O)(=O)c3ccc4[nH]c(=O)[nH]c4c3)cc2)cc1 | inconclusive: 20.6 µM [rising, single point] |  |
| COC(=O)c1ccc2c(c1)C(NC(C)=O)CCc1cc(OC)c(OC)c(OC)c1-2 (centres undefined) | active: 0.82 µM |  |
| CN(C)c1ccc(/C=N\NC(=O)c2cccc3cc[nH]c23)cc1 | inconclusive: 14.6 µM [cytotoxic, partial curve] |  |
| O=C(NCc1ccc2c(c1)OCO2)c1ccc2c(=O)n(C3CCCC3)c(=O)[nH]c2c1 | inconclusive: 29.1 µM [cytotoxic, single point] |  |
| CC1(C(=O)NCc2ccccc2Br)CCN1Cc1ccc(-c2ccccn2)cc1 (centres undefined) | active: 13 µM |  |
| COC(=O)c1c(C(=O)OC)c(-c2ccc(C)cc2)n2c1CCC2 | active: 14.6 µM |  |
| CCOc1ccc(OCC)c(NC(=O)C2CCCN(C(=O)c3ccc(Cl)cc3)C2)c1 (centres undefined) | active: 7.31 µM |  |
| CC1=C(C(N)=O)C(c2cccs2)NC(=O)N1 (centres undefined) | inactive |  |
| Cc1ccc([N+](=O)[O-])cc1NC(=S)NCCc1ccccc1 | inconclusive: 29.1 µM [cytotoxic, single point] |  |
| C#CCOCCOCCOCCNc1nc(N2CCN(C(=O)CCCCCCCCCCNC(=O)[C@H](CCCCN)n3cc(C[C@@H](C)CC)nn3)CC2)nc(N2CCN(C(=O)CCCCCCCCCCNC(=O)[C@@H]([C@H](C)O)n3cc(C)nn3)CC2)n1 | active: 9.2 µM |  |
| CSc1n[nH]c(-c2sccc2OCc2ccc(C)cc2)n1 | active: 16.4 µM |  |
| COc1ccc(C=O)cc1CSc1ccccn1 | inactive |  |
| CCn1c(CN(C)c2ccccc2)nc2ccccc21 | inconclusive: 20.6 µM [cytotoxic, partial curve] |  |
| CC1CC(c2ccccc2)n2nc(NC(=O)CCc3ccccc3)nc2N1 (centres undefined) | inconclusive: 18.4 µM [cytotoxic, partial curve] |  |
| Cc1nn(-c2ccccn2)c2c1C(=O)CC(C)(C)C2Br (centres undefined) | inconclusive: 29.1 µM [cytotoxic, single point] |  |

| Structure (SMILES) | Potency | activity change, negative = cytotoxicity |
| --- | --- | --- |
| CN(CC(=O)Nc1ccc(N2CCOCC2)cc1)C(=O)Cc1ccccc1 | inconclusive: 18.4 µM [cytotoxic, partial curve, poor fit] |  |
| O=C(Nc1ccccc1C(=O)N1CCN(Cc2ccccc2)CC1)c1ccccc1 | inconclusive: 23.1 µM [cytotoxic, single point] |  |
| Cc1onc(-c2ccccc2)c1C(=O)NNC(=S)NC(=O)c1ccc2c(c1)OCO2 | inconclusive: 1.84 µM [cytotoxic, full curve] |  |
| COc1ccc(/C=N/NC(=S)NCc2ccccc2)cc1OC | active: 20.6 µM |  |
| COc1ccc(C)cc1NC(=O)CN(Cc1nnc(-c2ccc(Cl)cc2)o1)C1CCCC1 | inconclusive: 18.4 µM [cytotoxic, single point] |  |
| O=C(Cn1cc2c(n1)CCCC2)N1CCCC1 | inactive |  |
| COc1cccc(C(=O)NC2CC3CCCC(C2)N3S(=O)(=O)c2ccccc2)c1 (centres undefined) | inconclusive: 4.11 µM [cytotoxic, full curve, poor fit] |  |
| O=C(CN(c1ccccc1)S(=O)(=O)c1ccccc1)NCCSc1ccccn1 | inconclusive: 9.2 µM [cytotoxic, partial curve] |  |
| COc1cccc(NC(=O)CCc2ccccc2)c1 | inconclusive: 0.0065 µM [rising, full curve, poor fit] |  |
| CCCc1ccc(-c2csc(NC(=O)C3=COCCO3)n2)cc1 | inconclusive: 18.4 µM [cytotoxic, single point] |  |
| Cc1[nH]c(N=Nc2ccccc2)nc1N=Nc1ccccc1 |  | inconclusive: -26.7% |
| Cc1ccc(CCc2nnc(SCC(=O)Nc3cc(Cl)ccc3Cl)n2-c2ccccc2)o1 | active: 14.6 µM |  |
| CCCCC[C@@H](C)N1C[C@H](COCc2ccccc2)Oc2cc(N3CCC[C@H]3C(N)=O)ccc2S1(=O)=O | inconclusive: 6.51 µM [cytotoxic, partial curve] |  |
| CCC(O)CNC(=O)NC(=C(Cl)Cl)c1ccc(C)c(F)c1 (centres undefined) | inconclusive: 16.4 µM [cytotoxic, single point] |  |
| CC(C)c1nccn1S(=O)(=O)c1cc(Cl)ccc1Cl | inconclusive: 1.84 µM [rising, partial curve, poor fit] |  |
| Cn1c2ccccc2c2c(C(=O)N3CCN(c4ccccc4)CC3)cn(C3CCCC3)c(=O)c21 | inconclusive: 14.6 µM [cytotoxic, partial curve, poor fit] |  |
| COc1ccc(CN2CCC(=O)N([C@H](CO)CC(C)C)CC2)cc1 | inconclusive: 16.4 µM [cytotoxic, partial curve, poor fit] |  |
| CC(C)(C)n1ncc2c(=O)n(CC(=O)NCc3ccco3)cnc21 | inconclusive: 18.4 µM [cytotoxic, single point] |  |
| CCCC(c1nnnn1C(C)(C)C)N1CCN(C(=O)c2ccco2)CC1 (centres undefined) | inconclusive: 20.6 µM [cytotoxic, single point] |  |
| COC(=O)N1CCCCC1c1cc(C(=O)Nc2ccc3c(c2)OCO3)no1 (centres undefined) | inactive |  |
| Cc1cccc(NC(=S)NCc2cccs2)c1 | inactive |  |
| Clc1ccccc1Cn1nnc2c(N3CCOCC3)nc(C3CC3)nc21 | active: 3.66 µM |  |
| COc1ccc(-c2cc3nc(C)c(C)c(N4CCN(C(=O)c5ccoc5)CC4)n3n2)cc1 | inactive |  |

| Structure (SMILES) | Potency | activity change, negative = cytotoxicity |
| --- | --- | --- |
| Cc1c(C(=O)OCc2nc3ccsc3c(=O)[nH]2)oc2ccccc12 | inconclusive: 29.1 µM [cytotoxic, single point] |  |
| Cc1cccc(Cn2c(=O)n(-c3ccc(CC(=O)NCc4ccco4)cc3)c(=O)c3sccc32)c1 | inconclusive: 20.6 µM [cytotoxic, partial curve, poor fit] |  |
| CCOC(=O)C1(CCc2ccccc2)CCN(Cc2ccc(C(=O)OC)cc2)CC1 | inactive |  |
| Brc1ccc(C2C=Cc3ccccc32)cc1 (centres undefined) | inactive |  |
| COc1ccc(C(=O)/C=C/c2ccccc2)c(O)c1 | inactive |  |
| O=C(Cc1ccc(Cl)cc1)Nc1cccc(-c2nnc(-c3ccco3)o2)c1 | active: 0.58 µM |  |
| COc1ccccc1C(=O)Nc1ccc(S(=O)(=O)N2CCCC2)cc1 | active: 18.4 µM |  |
| CC(C)[C@@H]1CC[C@@H](C)c2c(-c3ccccc3)n[nH]c21 |  | inconclusive: -2.03% |
| CCCCNC(=O)C1(C)CCN1Cc1ccc(C#N)cc1 (centres undefined) | inconclusive: 20.6 µM [cytotoxic, partial curve] |  |
| Cc1ccccc1Cn1c(SCc2ccc(C(=O)NC(C)c3ccccc3)cc2)nc2ccncc21 (centres undefined) | inactive |  |
| O=S(=O)(N=S(N1CCCCC1)N1CCCCC1)c1ccccc1 | inactive |  |
| Cc1cc(NC(=O)CSc2ccc(-c3ccc(F)cc3)nn2)no1 | inconclusive: 16.4 µM [cytotoxic, single point] |  |
| CCOC(=O)c1ccccc1NC(=O)Cn1ncc2c([nH]c3ccccc32)c1=O | inactive |  |
| CCN(CC(=O)Nc1ccc2c(c1)OCCO2)S(=O)(=O)c1ccc(C)cc1 | active: 16.4 µM |  |
| CCn1c(NCCc2ccc(OC)c(OC)c2)nc2c1c(=O)n(C)c(=O)n2C | active: 4.61 µM |  |
| Cc1ccsc1C(=O)N/N=C/C=C/c1ccccc1[N+](=O)[O-] | inconclusive: 29.1 µM [cytotoxic, single point] |  |
| Cc1c2c(n3c(nc4ccccc43)c1C#N)N(CCCN(C)C)CC2 | inconclusive: 16.4 µM [cytotoxic, single point] |  |
| COC(=O)c1ccc2c(=O)n(Cc3ccc(C(=O)NCCCN4CCC(C)CC4)cc3)c(=S)[nH]c2c1 | inconclusive: 23.1 µM [rising, partial curve] |  |
| O=C(Nc1cc([N+](=O)[O-])ccc1N1CCCC1)c1ccccc1 | inconclusive: 18.4 µM [cytotoxic, partial curve, poor fit] |  |
| CS(=O)(=O)c1nc(S(=O)(=O)c2ccc(Cl)cc2)c(NCCCn2ccnc2)s1 |  | inconclusive: -52.8% |
| COc1ccc(-c2cc3nc(C)cc(N4CCN(C(=O)c5ccoc5)CC4)n3n2)cc1 | inconclusive: 29.1 µM [rising, single point] |  |
| Fc1cc(F)c(C2SCCN2C(=S)Nc2cccc(C(F)(F)F)c2)c(F)c1 (centres undefined) | inconclusive: 32.6 µM [cytotoxic, single point] |  |
| O=C(NCCc1cccs1)c1ccc(Cn2c(SCc3ccc(F)cc3)nc3cccnc32)cc1 | inactive |  |

Structures listed so far with fluorine, in the order listed:

| Structure (SMILES) | Potency | activity change, negative = cytotoxicity |
| --- | --- | --- |
| Cc1ccc(CSCC(=O)N(C)CC(=O)Nc2ccccc2C(F)(F)F)cc1 | inconclusive: 29.1 µM [cytotoxic, single point] |  |
| CCC(O)CNC(=O)NC(=C(Cl)Cl)c1ccc(C)c(F)c1 (centres undefined) | inconclusive: 16.4 µM [cytotoxic, single point] |  |
| Cc1cc(NC(=O)CSc2ccc(-c3ccc(F)cc3)nn2)no1 | inconclusive: 16.4 µM [cytotoxic, single point] |  |
| Fc1cc(F)c(C2SCCN2C(=S)Nc2cccc(C(F)(F)F)c2)c(F)c1 (centres undefined) | inconclusive: 32.6 µM [cytotoxic, single point] |  |
| O=C(NCCc1cccs1)c1ccc(Cn2c(SCc3ccc(F)cc3)nc3cccnc32)cc1 | inactive |  |
